The list shows only some results of the screen, not a fair sample: it gathers tests that were run many times, whatever their T/C, doses with no T/C, and many T/C values between a quarter and a half above the control. Further doses and runs are listed elsewhere. T/C: endpoint of the treated group in % of that of the vehicle group. Schedules are NCI's codes, read here as Q, the interval in days (D) or hours (H), X, the number of doses. Some doses have a count of surviving animals in place of a T/C: the source files T/C as zero there, which appears to mark a toxic dose or a test without result, not a measured value. Some survivor counts are full or nearly so, which does not show that the dose was tolerated: survival well below the control is almost never listed, so the zero probably covers shortened survival too. Counts of survivors are from the toxicity check (mostly the fifth day) where no day follows; animals may have died later. Some entries were tested several times; the results are listed from low to high. For survival time, the PubChem record calls one and a half times the control and up active, and a quarter to a half above the control has no call in these data; cut-offs in other NCI protocols can differ. Some T/C values are followed by the survivors on the day toxicity was checked, most often the fifth; without a count, all were alive then.
Tested on: Lewis lung carcinoma i.m., BDF1 mice, T/C %
Assay: NCI In Vivo Anticancer Drug Screen. Data for tumor model Lewis Lung Carcinoma (intramuscular) in B6D2F1 (BDF1) mice
How it was run: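 Transplantable tumour model; readout survival or tumour size; value = treated (T) / vehicle control (C).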

S=P(N1CC1)(N1CC1)N1CC1
survivor count (T/C endpoint: median survival time, dose: 1.5 mg/kg/injection, schedule: Q01DX011 (ip), vehicle: water, higher T/C = longer survival): 0 of 10
survivor count (T/C endpoint: median survival time, dose: 6.0 mg/kg/injection, schedule: Q01DX011 (ip), vehicle: water, higher T/C = longer survival): 8 of 10
survivor count (T/C endpoint: median survival time, dose: 12.0 mg/kg/injection, schedule: Q01DX011 (ip), vehicle: water, higher T/C = longer survival): 0 of 10 and 7 of 10
survivor count (T/C endpoint: median survival time, dose: 24.0 mg/kg/injection, schedule: Q01DX011 (ip), vehicle: water, higher T/C = longer survival): 0 of 10

Nc1ncn(C2OC(CO)C(O)C2O)c(=O)n1 (stereo not drawn)
survivor count (T/C endpoint: mean tumor weight, dose: 0.75 mg/kg/injection, schedule: Q01DX011 (ip), vehicle: saline, higher T/C = larger tumour): 2 of 8
survivor count (T/C endpoint: median survival time, dose: 0.19 mg/kg/injection, schedule: Q01DX011 (ip), vehicle: saline, higher T/C = longer survival): 6 of 8
survivor count (T/C endpoint: median survival time, dose: 0.75 mg/kg/injection, schedule: Q01DX011 (ip), vehicle: saline, higher T/C = longer survival): 2 of 8
T/C (T/C endpoint: median survival time, dose: 0.8 mg/kg/injection, schedule: Q01DX011 (ip), vehicle: saline, higher T/C = longer survival): 131 % of control
survivor count (T/C endpoint: median survival time, dose: 1.5 mg/kg/injection, schedule: Q01DX011 (ip), vehicle: saline, higher T/C = longer survival): 0 of 8
T/C (T/C endpoint: median survival time, dose: 1.6 mg/kg/injection, schedule: Q01DX011 (ip), vehicle: saline, higher T/C = longer survival): 131 and 142 % of control
survivor count (T/C endpoint: median survival time, dose: 3.0 mg/kg/injection, schedule: Q01DX011 (ip), vehicle: saline, higher T/C = longer survival): 0 of 8
survivor count (T/C endpoint: median survival time, dose: 3.2 mg/kg/injection, schedule: Q01DX011 (ip), vehicle: saline, higher T/C = longer survival): 7 of 10 and 10 of 10
survivor count (T/C endpoint: median survival time, dose: 6.0 mg/kg/injection, schedule: Q01DX011 (ip), vehicle: saline, higher T/C = longer survival): 0 of 8

CN(C)c1nc(N(C)C)nc(N(C)C)n1
survivor count (T/C endpoint: mean tumor weight (est.), dose: 200.0 mg/kg/injection, schedule: Q01DX011 (ip), vehicle: saline with Tween-80, higher T/C = larger tumour): 3 of 8
survivor count (T/C endpoint: mean tumor weight, dose: 250.0 mg/kg/injection, schedule: Q01DX011 (ip), vehicle: steroid suspending solution, higher T/C = larger tumour): 5 of 8
survivor count (T/C endpoint: median survival time, dose: 250.0 mg/kg/injection, schedule: Q01DX011 (ip), vehicle: steroid suspending solution, higher T/C = longer survival): 5 of 8

C[N+](C)(C)c1cc2c(nn1)Nc1ccccc1S2
survivor count (T/C endpoint: median survival time, dose: 8.5 mg/kg/injection, schedule: Q01DX011 (ip), vehicle: saline with Tween-80, higher T/C = longer survival): 0 of 8
survivor count (T/C endpoint: median survival time, dose: 17.0 mg/kg/injection, schedule: Q01DX011 (ip), vehicle: saline with Tween-80, higher T/C = longer survival): 0 of 8
survivor count (T/C endpoint: median survival time, dose: 34.0 mg/kg/injection, schedule: Q01DX011 (ip), vehicle: saline with Tween-80, higher T/C = longer survival): 0 of 8
survivor count (T/C endpoint: median survival time, dose: 68.0 mg/kg/injection, schedule: Q01DX011 (ip), vehicle: saline with Tween-80, higher T/C = longer survival): 0 of 8

COc1cc([C@@H]2c3cc4c(c(O)c3C[C@H]3COC(=O)[C@@H]32)OCO4)cc(OC)c1OC
T/C (T/C endpoint: mean tumor weight (est.), dose: 1.0 mg/kg/injection, schedule: Q01DX011 (ip), vehicle: Klucel (hydroxypropylcellulose) (HPC), evaluated on day 12, higher T/C = larger tumour): 129 % of control
survivor count (T/C endpoint: mean tumor weight (est.), dose: 4.0 mg/kg/injection, schedule: Q01DX011 (ip), vehicle: Klucel (hydroxypropylcellulose) (HPC), higher T/C = larger tumour): 1 of 8

O=NN(CCCl)C(=O)NC1CCCCC1
survivor count (T/C endpoint: median survival time, dose: 4.0 mg/kg/injection, schedule: Q01DX012 (ip), vehicle: saline + alcohol, higher T/C = longer survival): 10 of 10
survivor count (T/C endpoint: median survival time, dose: 8.0 mg/kg/injection, schedule: Q01DX011 (ip), vehicle: saline with Tween-80, higher T/C = longer survival): 7 of 8
survivor count (T/C endpoint: median survival time, dose: 8.0 mg/kg/injection, schedule: Q01DX012 (ip), vehicle: saline + alcohol, higher T/C = longer survival): 6 of 10
survivor count (T/C endpoint: median survival time, dose: 14.0 mg/kg/injection, schedule: Q07DX003 (ip), vehicle: saline, higher T/C = longer survival): 8 of 8
survivor count (T/C endpoint: median survival time, dose: 16.0 mg/kg/injection, schedule: Q01DX011 (ip), vehicle: saline + alcohol, higher T/C = longer survival): 10 of 10
T/C (T/C endpoint: median survival time, dose: 16.0 mg/kg/injection, schedule: Q01DX011 (ip), vehicle: saline with Tween-80, higher T/C = longer survival): 133 % of control [7 of 8 alive]
T/C (T/C endpoint: median survival time, dose: 23.0 mg/kg/injection, schedule: Q01DX001 (sc), vehicle: saline, higher T/C = longer survival): 143 % of control
survivor count (T/C endpoint: median survival time, dose: 32.0 mg/kg/injection, schedule: Q01DX011 (ip), vehicle: saline + alcohol, higher T/C = longer survival): 3 of 10
survivor count (T/C endpoint: median survival time, dose: 32.0 mg/kg/injection, schedule: Q01DX011 (ip), vehicle: saline with Tween-80, higher T/C = longer survival): 7 of 8
survivor count (T/C endpoint: median survival time, dose: 32.0 mg/kg/injection, schedule: Q01DX012 (ip), vehicle: saline + alcohol, higher T/C = longer survival): 10 of 10
T/C (T/C endpoint: median survival time, dose: 39.0 mg/kg/injection, schedule: Q01DX001 (ip), vehicle: saline, higher T/C = longer survival): 129 % of control
survivor count (T/C endpoint: median survival time, dose: 64.0 mg/kg/injection, schedule: Q01DX011 (ip), vehicle: saline + alcohol, higher T/C = longer survival): 0 of 10
survivor count (T/C endpoint: median survival time, dose: 64.0 mg/kg/injection, schedule: Q01DX011 (ip), vehicle: saline with Tween-80, higher T/C = longer survival): 0 of 8
survivor count (T/C endpoint: median survival time, dose: 64.0 mg/kg/injection, schedule: Q01DX012 (ip), vehicle: saline + alcohol, higher T/C = longer survival): 1 of 10
T/C (T/C endpoint: median survival time, dose: 65.0 mg/kg/injection, schedule: Q07DX003 (ip), vehicle: saline, higher T/C = longer survival): 130 % of control
survivor count (T/C endpoint: median survival time, dose: 108.0 mg/kg/injection, schedule: Q07DX003 (ip), vehicle: saline, higher T/C = longer survival): 5 of 8
